Construct, isoform or probe ends are uncertain for at least one entry. For some assays here: Tags and fusion partners may be left off the protein sequences shown.
How the values were obtained:
Assay in all cases: protein microarray
Details in all cases: 10-fold cold unmethylated competitor; 5mC at CpG (SssI, both strands); recombinant protein; protein details: GST (N-terminal); label: Cy5
E2F3 (Homo sapiens) = E2F3 (Homo sapiens) (UniProt O00716)
GATA3 (Homo sapiens) = GATA3 (Homo sapiens) (UniProt P23771)
GATA4 (Homo sapiens) = GATA4 (Homo sapiens) (UniProt P43694)
HOXA5 (Homo sapiens) = HOXA5 (Homo sapiens) (UniProt P20719)
NPAS2 (Homo sapiens) = biological target: T1, NPAS2 (Homo sapiens) (UniProt Q99743)
T1 sequence (looked up, limits assumed): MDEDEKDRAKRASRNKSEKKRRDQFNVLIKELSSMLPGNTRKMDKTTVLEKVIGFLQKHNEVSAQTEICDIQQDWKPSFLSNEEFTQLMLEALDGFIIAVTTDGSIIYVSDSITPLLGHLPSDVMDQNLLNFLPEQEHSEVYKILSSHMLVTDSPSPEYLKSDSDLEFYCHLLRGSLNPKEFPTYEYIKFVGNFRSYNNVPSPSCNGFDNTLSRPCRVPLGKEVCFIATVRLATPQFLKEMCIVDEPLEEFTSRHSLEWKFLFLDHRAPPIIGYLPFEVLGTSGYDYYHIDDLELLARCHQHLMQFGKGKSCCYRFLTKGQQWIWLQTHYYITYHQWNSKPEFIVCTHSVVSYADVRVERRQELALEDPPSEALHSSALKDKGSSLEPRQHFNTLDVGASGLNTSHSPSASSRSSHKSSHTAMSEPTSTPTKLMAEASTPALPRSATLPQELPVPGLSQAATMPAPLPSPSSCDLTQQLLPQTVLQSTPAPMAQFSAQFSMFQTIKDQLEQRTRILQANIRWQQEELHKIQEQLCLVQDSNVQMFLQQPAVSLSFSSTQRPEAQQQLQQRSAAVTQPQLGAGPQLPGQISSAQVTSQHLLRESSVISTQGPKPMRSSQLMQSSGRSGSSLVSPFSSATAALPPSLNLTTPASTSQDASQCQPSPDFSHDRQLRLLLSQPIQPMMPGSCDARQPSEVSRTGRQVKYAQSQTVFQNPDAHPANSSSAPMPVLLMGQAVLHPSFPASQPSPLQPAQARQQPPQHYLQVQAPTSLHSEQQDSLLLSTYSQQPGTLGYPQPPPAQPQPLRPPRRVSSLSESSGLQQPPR

By UniProt entry, the sequences of proteins in these tests, tags left out. Where a name states a change or a piece, a line headed by the entry shows the natural chain unless it says otherwise.
UniProt O00716: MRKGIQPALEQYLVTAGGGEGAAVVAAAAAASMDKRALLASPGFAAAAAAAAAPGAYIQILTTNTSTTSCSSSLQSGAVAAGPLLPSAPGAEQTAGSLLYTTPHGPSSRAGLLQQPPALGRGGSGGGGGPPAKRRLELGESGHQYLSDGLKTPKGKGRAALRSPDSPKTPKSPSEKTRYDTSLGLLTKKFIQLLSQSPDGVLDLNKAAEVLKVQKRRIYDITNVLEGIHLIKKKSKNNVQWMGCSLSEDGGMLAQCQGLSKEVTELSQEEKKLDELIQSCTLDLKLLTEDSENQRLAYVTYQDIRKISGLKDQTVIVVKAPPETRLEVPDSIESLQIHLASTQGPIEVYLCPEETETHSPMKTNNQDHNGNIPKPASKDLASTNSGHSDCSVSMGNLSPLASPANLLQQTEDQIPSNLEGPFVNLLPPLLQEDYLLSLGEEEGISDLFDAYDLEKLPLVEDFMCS
UniProt P23771: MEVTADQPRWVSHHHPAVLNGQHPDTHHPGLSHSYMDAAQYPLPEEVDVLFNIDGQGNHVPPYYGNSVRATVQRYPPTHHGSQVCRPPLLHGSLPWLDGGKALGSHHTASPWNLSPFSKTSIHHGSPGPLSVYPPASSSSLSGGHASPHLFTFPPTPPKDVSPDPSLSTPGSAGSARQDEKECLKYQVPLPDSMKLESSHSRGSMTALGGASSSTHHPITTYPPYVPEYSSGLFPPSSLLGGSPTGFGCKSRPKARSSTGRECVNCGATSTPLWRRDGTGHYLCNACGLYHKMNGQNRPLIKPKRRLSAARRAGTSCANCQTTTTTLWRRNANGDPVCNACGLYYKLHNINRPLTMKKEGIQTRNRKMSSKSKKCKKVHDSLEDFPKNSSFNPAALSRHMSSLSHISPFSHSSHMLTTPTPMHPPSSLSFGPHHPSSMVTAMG
UniProt P43694: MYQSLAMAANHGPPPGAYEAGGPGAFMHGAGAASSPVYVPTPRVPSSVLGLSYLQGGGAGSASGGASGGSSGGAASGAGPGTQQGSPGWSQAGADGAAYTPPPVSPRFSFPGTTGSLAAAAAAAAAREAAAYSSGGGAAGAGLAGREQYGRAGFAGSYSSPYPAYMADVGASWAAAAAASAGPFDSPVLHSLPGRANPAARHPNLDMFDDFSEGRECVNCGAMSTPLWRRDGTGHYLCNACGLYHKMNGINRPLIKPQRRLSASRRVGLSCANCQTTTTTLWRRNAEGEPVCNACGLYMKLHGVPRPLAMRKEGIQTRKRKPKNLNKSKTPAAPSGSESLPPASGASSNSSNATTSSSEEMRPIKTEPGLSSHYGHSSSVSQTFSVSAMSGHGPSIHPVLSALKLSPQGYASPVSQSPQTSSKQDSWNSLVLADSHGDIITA
UniProt P20719: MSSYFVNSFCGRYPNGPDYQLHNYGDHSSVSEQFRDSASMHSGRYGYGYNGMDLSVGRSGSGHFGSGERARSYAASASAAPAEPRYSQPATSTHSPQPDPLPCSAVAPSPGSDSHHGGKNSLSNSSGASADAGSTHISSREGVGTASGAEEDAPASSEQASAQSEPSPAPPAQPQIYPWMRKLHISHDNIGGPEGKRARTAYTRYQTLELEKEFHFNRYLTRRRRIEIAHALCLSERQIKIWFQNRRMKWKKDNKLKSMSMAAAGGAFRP
UniProt P37231: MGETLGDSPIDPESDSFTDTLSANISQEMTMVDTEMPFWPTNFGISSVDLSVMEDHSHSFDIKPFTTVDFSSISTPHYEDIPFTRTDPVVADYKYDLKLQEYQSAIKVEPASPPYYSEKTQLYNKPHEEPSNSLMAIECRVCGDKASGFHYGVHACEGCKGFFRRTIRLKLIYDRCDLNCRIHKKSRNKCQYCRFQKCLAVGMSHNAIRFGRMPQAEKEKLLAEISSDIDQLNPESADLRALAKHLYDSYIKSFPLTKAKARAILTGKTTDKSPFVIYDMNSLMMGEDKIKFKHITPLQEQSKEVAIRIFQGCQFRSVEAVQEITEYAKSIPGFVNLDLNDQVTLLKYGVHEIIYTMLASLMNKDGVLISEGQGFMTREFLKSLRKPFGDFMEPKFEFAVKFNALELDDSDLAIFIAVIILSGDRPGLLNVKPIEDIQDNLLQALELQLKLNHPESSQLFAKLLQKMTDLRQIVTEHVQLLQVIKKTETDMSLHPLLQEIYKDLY
UniProt Q8NC26: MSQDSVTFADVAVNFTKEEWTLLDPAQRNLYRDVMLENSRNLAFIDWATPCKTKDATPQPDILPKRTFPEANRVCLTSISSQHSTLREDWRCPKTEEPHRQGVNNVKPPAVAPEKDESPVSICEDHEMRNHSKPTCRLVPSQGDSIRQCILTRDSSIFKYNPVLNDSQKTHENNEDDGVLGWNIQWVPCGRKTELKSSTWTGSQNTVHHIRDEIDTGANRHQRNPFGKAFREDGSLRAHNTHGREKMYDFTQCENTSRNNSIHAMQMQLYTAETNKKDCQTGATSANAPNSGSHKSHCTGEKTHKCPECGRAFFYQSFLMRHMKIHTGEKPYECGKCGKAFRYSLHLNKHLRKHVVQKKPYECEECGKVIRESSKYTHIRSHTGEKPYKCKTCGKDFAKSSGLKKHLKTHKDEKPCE
UniProt Q9BWM5: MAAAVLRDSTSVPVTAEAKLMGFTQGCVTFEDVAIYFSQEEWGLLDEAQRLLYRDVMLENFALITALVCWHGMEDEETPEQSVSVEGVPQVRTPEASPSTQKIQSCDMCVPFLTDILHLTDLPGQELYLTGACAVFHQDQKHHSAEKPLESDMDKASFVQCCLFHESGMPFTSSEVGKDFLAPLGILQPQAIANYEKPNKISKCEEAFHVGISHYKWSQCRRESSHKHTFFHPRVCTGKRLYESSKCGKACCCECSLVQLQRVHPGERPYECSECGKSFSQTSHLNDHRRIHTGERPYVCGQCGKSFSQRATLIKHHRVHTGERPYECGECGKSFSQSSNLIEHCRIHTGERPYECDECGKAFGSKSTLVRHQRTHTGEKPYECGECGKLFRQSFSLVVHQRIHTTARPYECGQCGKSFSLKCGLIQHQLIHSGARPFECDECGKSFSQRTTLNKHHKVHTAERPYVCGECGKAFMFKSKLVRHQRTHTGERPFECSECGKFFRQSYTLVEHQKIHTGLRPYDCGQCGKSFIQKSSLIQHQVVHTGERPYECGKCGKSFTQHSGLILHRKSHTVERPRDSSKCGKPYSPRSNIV

PPARG (Homo sapiens) = PPARG (Homo sapiens) (UniProt P37231)
RNF138 (Homo sapiens) = biological target: T2, RNF138 (Homo sapiens) (UniProt Q8WVD3)
T2 sequence (looked up, limits assumed): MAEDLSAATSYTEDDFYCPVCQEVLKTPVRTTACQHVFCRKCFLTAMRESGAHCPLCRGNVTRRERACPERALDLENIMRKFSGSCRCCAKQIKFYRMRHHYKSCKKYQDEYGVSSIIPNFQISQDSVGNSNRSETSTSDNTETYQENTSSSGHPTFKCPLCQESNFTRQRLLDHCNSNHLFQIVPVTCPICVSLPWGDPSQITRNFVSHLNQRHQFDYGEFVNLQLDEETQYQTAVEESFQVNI

SCAPER (Homo sapiens) = biological target: T3, SCAPER (Homo sapiens) (UniProt Q9BY12)
T3 sequence (looked up, limits assumed): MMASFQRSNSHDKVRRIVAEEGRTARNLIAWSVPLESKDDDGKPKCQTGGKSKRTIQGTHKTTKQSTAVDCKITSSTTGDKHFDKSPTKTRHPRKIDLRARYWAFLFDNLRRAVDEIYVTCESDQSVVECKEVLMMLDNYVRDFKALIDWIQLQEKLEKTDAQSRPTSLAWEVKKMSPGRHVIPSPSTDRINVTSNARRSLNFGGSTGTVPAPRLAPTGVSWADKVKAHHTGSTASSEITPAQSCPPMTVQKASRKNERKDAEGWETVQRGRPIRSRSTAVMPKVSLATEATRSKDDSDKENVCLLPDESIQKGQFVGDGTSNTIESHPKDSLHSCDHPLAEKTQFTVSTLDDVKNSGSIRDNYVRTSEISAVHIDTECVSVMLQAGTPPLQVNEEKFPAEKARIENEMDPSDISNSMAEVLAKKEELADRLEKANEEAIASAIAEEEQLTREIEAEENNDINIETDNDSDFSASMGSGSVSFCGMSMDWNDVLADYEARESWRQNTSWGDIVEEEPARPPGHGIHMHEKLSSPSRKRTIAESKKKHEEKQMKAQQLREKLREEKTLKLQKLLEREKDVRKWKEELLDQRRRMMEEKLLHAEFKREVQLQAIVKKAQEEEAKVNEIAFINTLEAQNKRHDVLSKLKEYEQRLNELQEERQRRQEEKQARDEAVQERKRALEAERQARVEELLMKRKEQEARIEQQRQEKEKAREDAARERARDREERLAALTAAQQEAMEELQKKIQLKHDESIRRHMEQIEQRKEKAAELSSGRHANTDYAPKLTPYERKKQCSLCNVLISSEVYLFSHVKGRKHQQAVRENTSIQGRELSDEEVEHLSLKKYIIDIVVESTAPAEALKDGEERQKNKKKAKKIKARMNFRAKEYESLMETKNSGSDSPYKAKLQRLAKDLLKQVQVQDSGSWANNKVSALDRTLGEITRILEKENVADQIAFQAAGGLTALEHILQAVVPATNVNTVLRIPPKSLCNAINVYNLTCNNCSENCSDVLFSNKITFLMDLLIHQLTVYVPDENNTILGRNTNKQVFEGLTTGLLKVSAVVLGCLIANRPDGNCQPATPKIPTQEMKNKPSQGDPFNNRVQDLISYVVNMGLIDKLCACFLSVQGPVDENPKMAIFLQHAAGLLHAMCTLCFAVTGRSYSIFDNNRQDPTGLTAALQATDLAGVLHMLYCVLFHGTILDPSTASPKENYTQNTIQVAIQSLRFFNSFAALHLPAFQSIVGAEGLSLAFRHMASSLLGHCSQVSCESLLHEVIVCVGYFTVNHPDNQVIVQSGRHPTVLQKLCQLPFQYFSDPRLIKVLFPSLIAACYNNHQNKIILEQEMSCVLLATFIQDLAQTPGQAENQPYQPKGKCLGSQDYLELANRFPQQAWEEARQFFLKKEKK

ZCCHC7 (Homo sapiens) = biological target: T4, ZCCHC7 (Homo sapiens) (UniProt Q8N3Z6)
T4 sequence (looked up, limits assumed): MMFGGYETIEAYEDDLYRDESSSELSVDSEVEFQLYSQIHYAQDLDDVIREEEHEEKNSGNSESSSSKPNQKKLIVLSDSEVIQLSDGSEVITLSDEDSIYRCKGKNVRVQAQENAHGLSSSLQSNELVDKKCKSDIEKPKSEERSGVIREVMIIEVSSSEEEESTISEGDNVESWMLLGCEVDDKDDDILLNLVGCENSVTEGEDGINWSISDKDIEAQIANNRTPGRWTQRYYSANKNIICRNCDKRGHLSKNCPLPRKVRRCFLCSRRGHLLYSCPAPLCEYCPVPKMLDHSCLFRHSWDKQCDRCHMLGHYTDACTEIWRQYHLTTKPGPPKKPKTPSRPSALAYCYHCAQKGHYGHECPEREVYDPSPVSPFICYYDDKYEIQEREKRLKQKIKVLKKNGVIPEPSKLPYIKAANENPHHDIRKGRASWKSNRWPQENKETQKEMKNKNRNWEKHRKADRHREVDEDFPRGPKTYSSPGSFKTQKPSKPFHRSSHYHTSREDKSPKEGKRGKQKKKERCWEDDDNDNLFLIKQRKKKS

ZNF114 (Homo sapiens) = ZNF114 (Homo sapiens) (UniProt Q8NC26)
ZNF416 (Homo sapiens) = ZNF416 (Homo sapiens) (UniProt Q9BWM5)

Measured: binding result

CCGGCTCAAACCGGCTCCCCTATAGTGAGTGCTATTA (double strand) [M99]
binds: E2F3 (Homo sapiens) | GATA3 (Homo sapiens) | GATA4 (Homo sapiens) | HOXA5 (Homo sapiens) | NPAS2 (Homo sapiens) | PPARG (Homo sapiens) | RNF138 (Homo sapiens) | SCAPER (Homo sapiens) | ZCCHC7 (Homo sapiens) | ZNF114 (Homo sapiens) | ZNF416 (Homo sapiens)
